The chains behind the UniProt entries cited, without tags or fusion partners.
UniProt Q0JBA9, entry or part of it: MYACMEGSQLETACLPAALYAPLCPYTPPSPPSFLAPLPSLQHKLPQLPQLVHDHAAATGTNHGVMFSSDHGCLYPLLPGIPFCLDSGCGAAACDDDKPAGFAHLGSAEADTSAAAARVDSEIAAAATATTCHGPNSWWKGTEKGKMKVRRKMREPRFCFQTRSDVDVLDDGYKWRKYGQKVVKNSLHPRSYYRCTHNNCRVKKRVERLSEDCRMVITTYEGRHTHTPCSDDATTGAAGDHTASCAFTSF

Some of the results follow.
These sequences were tested against OsWRKY34 (Oryza sativa, UniProt Q0JBA9 1-250) (assay: protein-binding microarray (RPBM); PBS, 2% BSA, 51.3 ng/ul salmon testes DNA, 50 uM zinc acetate, 200 nM TF, 25 C, 1 h; high values mean tight binding). Conditions: protein: recombinant; tags: N-terminal polyhistidine and DsRed monomer fusion (pET32a); label: CyDye5-dUTP incorporated in the synthesized complementary strand; 3' TTTTT single-stranded linker to array surface; dsDNA, one strand shown.
Summary of the method: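 Using Ni–NTA, transcription factors fused N-terminally to polyhistidine and DsRed were purified after expression in E. coli BL21-CodonPlus. These were incubated at 200 nM with a blocked, double-stranded custom Agilent array for 1 h at 25 °C in a buffer containing 50 µM zinc acetate, and the array was washed. The binding signal is per-feature fluorescence intensity (arbitrary units) on an Axon 4000B scanner.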
With “GCTACTATCCATCACTAACATTTTTCCTAACATATTCCCTCGGAGTCACCTAGTGCAG” the binding signal was 10800 fluorescence intensity (a.u.).
For “CTCTGTGTTGCGCCGTCACTCGTAGACTACTCCATCCCGCCGGAGTCACCTAGTGCAG”, the binding signal was 9430 fluorescence intensity (a.u.).
For “ACACCATGTTTCCACATTGCATTTCCTTCTGTTTTTTCTTCGGAGTCACCTAGTGCAG”, the binding signal was 17600 fluorescence intensity (a.u.).
“GTGCCACGGCTATTTTTCTTCTCAGTTGGATAAGTCGGGTCGGAGTCACCTAGTGCAG” was tested, and the binding signal was 8640 fluorescence intensity (a.u.).
“ATCTGCCTGGCCACTTAGCCCGTGTGACCCATTTTTCGTTCGGAGTCACCTAGTGCAG” was tested, and the binding signal was 9610 fluorescence intensity (a.u.).
In the case of “CTCGTTGTTGTCTCTTCTCGCGCGTAGAGCTCTCTGCACTCGGAGTCACCTAGTGCAG”, the binding signal is reported as 8090 fluorescence intensity (a.u.).
“GCCACGTCATCTATCCGGCCTTCTCACGTCTAACCAATCACGGAGTCACCTAGTGCAG” was tested, and the binding signal was 8060 fluorescence intensity (a.u.).
With “TCGTGGCTGGGGAGGGACAAGAGGGAGGACGCGAGGCTGACGGAGTCACCTAGTGCAG” the binding signal was 11300 fluorescence intensity (a.u.).
With “CGCAGAATCACAGTTTTTCTTCATCTCCGGCAAGGGTAATCGGAGTCACCTAGTGCAG” the binding signal was 8960 fluorescence intensity (a.u.).
“ACCGATCCTTGCCGCTAATCTCTACTACTTTAAAATTTTGCGGAGTCACCTAGTGCAG” was tested, and the binding signal was 8160 fluorescence intensity (a.u.).
With “ACTTGTATTCCTATGAGAATCCTATGTTTTTCCTATTCCTCGGAGTCACCTAGTGCAG” the binding signal was 8950 fluorescence intensity (a.u.).
In the case of “CGTTTTATTTTTGGTTGTTTTTCTGTTTGGGTTTTGATTTCGGAGTCACCTAGTGCAG”, the binding signal is reported as 11300 fluorescence intensity (a.u.).
For “TGCTTCTCTATCACCAAATTTCTCAGTTTGTTCACAATTGCGGAGTCACCTAGTGCAG”, the binding signal was 8290 fluorescence intensity (a.u.).
For “ACTCTGTACTGCGCCGTCACTCGTAGACTACTCCATCCCGCGGAGTCACCTAGTGCAG”, the binding signal was 9600 fluorescence intensity (a.u.).
For “TTCTCTTCCCGCGTCTCCTCGCGCCTCTTCCCGCCAATCGCGGAGTCACCTAGTGCAG”, the binding signal was 8200 fluorescence intensity (a.u.).
With “TCCCCTACCGCTGCCCACCGCCGTCCACCACCGCCTTTCTCGGAGTCACCTAGTGCAG” the binding signal was 17000 fluorescence intensity (a.u.).
“TAAGTTTTTTCCCAATTTTCTCTGTCTCATTCTCCTCAAACGGAGTCACCTAGTGCAG” was tested, and the binding signal was 9670 fluorescence intensity (a.u.).
With “TCGTGGCCTTCAAGTTTCTGCTAGCTTCGTCCTTCGTTGCCGGAGTCACCTAGTGCAG” the binding signal was 9720 fluorescence intensity (a.u.).
For “GCTTCAGTTGGCAGCTGCCCTGTTTCTGCTTCATGTCCTGCGGAGTCACCTAGTGCAG”, the binding signal was 9450 fluorescence intensity (a.u.).
In the case of “TGTCTGTTCTTTCTTTTTTTTTTTCCCTCTCGTTCTTACTCGGAGTCACCTAGTGCAG”, the binding signal is reported as 9530 fluorescence intensity (a.u.).
“ACCCTCATGCTAAAAGTTTAGTATCTGGATGTTTTTATATCGGAGTCACCTAGTGCAG” was tested, and the binding signal was 9090 fluorescence intensity (a.u.).
For “AGGGACAGGGTTGGTGAAGTGGCTTCCATGCGGCGGCCACCGGAGTCACCTAGTGCAG”, the binding signal was 8150 fluorescence intensity (a.u.).
In the case of “CCGAGCTCCATCTCTGCCTCTTCCAGACGCGTCACCACTCCGGAGTCACCTAGTGCAG”, the binding signal is reported as 11300 fluorescence intensity (a.u.).
“AGCCTCACAACGGTTATTTTCAAATTTGAACGGTCAAATACGGAGTCACCTAGTGCAG” was tested, and the binding signal was 8570 fluorescence intensity (a.u.).
For “CTAGCTCACACACAATTGCATACACCTAGCTCAAAAGCCTCGGAGTCACCTAGTGCAG”, the binding signal was 9080 fluorescence intensity (a.u.).
In the case of “GTTTCAATCTCCATTTCTCAATCCTTCTTGAGCACCATCTCGGAGTCACCTAGTGCAG”, the binding signal is reported as 8260 fluorescence intensity (a.u.).
In the case of “GGATTTTGGAGTAGATTTTTCATGATGTTAATGGCATGTTCGGAGTCACCTAGTGCAG”, the binding signal is reported as 8240 fluorescence intensity (a.u.).
For “CTTCTTCTTCCTCGTATTGCTGCTGCTGCTTTTGGTCTCCCGGAGTCACCTAGTGCAG”, the binding signal was 8740 fluorescence intensity (a.u.).
With “TGTATGTCACTTACAGGTGGGCCCCATGTGCCTTTTAATTCGGAGTCACCTAGTGCAG” the binding signal was 8630 fluorescence intensity (a.u.).
“CCTCCCTAATTAGTACTCCACTCCACAAAACACCTCCTTCCGGAGTCACCTAGTGCAG” was tested, and the binding signal was 8690 fluorescence intensity (a.u.).
For “ATTTTGCTACCGGATCTAAACCCTATTTTCACAAGCTAATCGGAGTCACCTAGTGCAG”, the binding signal was 10500 fluorescence intensity (a.u.).
In the case of “CTTTTTTCTTTAATTATTTTCCGCGAAACAACAATAAATACGGAGTCACCTAGTGCAG”, the binding signal is reported as 9690 fluorescence intensity (a.u.).
With “GTTGCGCCTTAGCGATCGATACACCTCTCCGAGTAATGTTCGGAGTCACCTAGTGCAG” the binding signal was 8370 fluorescence intensity (a.u.).
“GCTGGTGTGTTCGCGTGGGACGTGTATGACTGACAATTAGCGGAGTCACCTAGTGCAG” was tested, and the binding signal was 8900 fluorescence intensity (a.u.).
For “CCACATGCCACATATTTCGTCCGTTTGAGTTTATTTTTTACGGAGTCACCTAGTGCAG”, the binding signal was 15700 fluorescence intensity (a.u.).
“ACAATGCCGTACTTAGAACCGAGCTACCGCCGTCGCCACCCGGAGTCACCTAGTGCAG” was tested, and the binding signal was 8880 fluorescence intensity (a.u.).
For “ATGATAGTTGAGGGACCCGTTGTATCTGGTTTTGGGGTTCCGGAGTCACCTAGTGCAG”, the binding signal was 8400 fluorescence intensity (a.u.).
In the case of “AGAAACCCTCGCCTCGCCGCCGTCGACTCGACTCGTACCGCGGAGTCACCTAGTGCAG”, the binding signal is reported as 9020 fluorescence intensity (a.u.).
For “TACTAATTTAAGTTTGTATTTTGGTTGGTTCAGATTTGCACGGAGTCACCTAGTGCAG”, the binding signal was 9120 fluorescence intensity (a.u.).
“CATCACTGTTCTCCCGCCCTTTCTCTTCCTTTCCCCTGCCCGGAGTCACCTAGTGCAG” was tested, and the binding signal was 8510 fluorescence intensity (a.u.).
With “TCCGATGGAGTCCTATTTTTTTTCCACATAATACAATTAACGGAGTCACCTAGTGCAG” the binding signal was 8970 fluorescence intensity (a.u.).
In the case of “CTTGCATTTCTTTTATTATGTTTTACACCTCTCCTAAAATCGGAGTCACCTAGTGCAG”, the binding signal is reported as 9210 fluorescence intensity (a.u.).
In the case of “GCTTTGGATTGGGTCGAGGTGGGTAATTCGTCCGGTATTACGGAGTCACCTAGTGCAG”, the binding signal is reported as 15600 fluorescence intensity (a.u.).
With “CTATCTTTCTCATCCGATTCCTATGTTTTTCCTGTGGTCCCGGAGTCACCTAGTGCAG” the binding signal was 8590 fluorescence intensity (a.u.).
With “GCATCGTACCAACTGAGCAAGCAGCAAACGACTACTTTCTCGGAGTCACCTAGTGCAG” the binding signal was 8160 fluorescence intensity (a.u.).
“TCTTCGGTTTTTATAAATTGCCGCTTGATATTTTCTGATACGGAGTCACCTAGTGCAG” was tested, and the binding signal was 9030 fluorescence intensity (a.u.).
For “TGCATCGTTAATTTTTTATATGGTTTGCTAGTCAAACCCTCGGAGTCACCTAGTGCAG”, the binding signal was 9200 fluorescence intensity (a.u.).
For “TCTTTTGGACCATATTACCCCTATCTTCTCCATTCATCCCCGGAGTCACCTAGTGCAG”, the binding signal was 10400 fluorescence intensity (a.u.).
In the case of “GTCTTATTTCTCCTCCCGTAGCAGGTACGCTAGATTATAGCGGAGTCACCTAGTGCAG”, the binding signal is reported as 9590 fluorescence intensity (a.u.).
“TATTTCCTGCGATTTTCTGTGGTTTGTTCTGGGCGGCACTCGGAGTCACCTAGTGCAG” was tested, and the binding signal was 11000 fluorescence intensity (a.u.).
For “TTCTTGCCATCCCGTCGCTCCCAATCTCCACCGAGGTAGGCGGAGTCACCTAGTGCAG”, the binding signal was 8400 fluorescence intensity (a.u.).
With “CCTCTACCTCCGCCGCACGTGCCGCATCTTCCGCCGCCTCCGGAGTCACCTAGTGCAG” the binding signal was 13000 fluorescence intensity (a.u.).
For “GTGTGGTCTGTGGAGTGTATGGTTGATTTGGTTGGTAATTCGGAGTCACCTAGTGCAG”, the binding signal was 10400 fluorescence intensity (a.u.).
“TGTGTAGTGTGGTTTGCTGCTTCGCTTCAATAATAGTAGTCGGAGTCACCTAGTGCAG” was tested, and the binding signal was 9760 fluorescence intensity (a.u.).

From publication PMC7819943, “Rice protein-binding microarrays: a tool to detect cis-acting elements near promoter regions in rice”
